Results: PubChem BioAssay AID504834 (National Center for Advancing Translational Sciences (NCATS), 2011)
Screen size: about 320,000 compounds; about 22,000 (6.9%) were called active. Inconclusive means that the source gave no clear call. Such entries were picked first, then a sample of the others. Calls come from the whole dose curve; as a rule, active = well fitted inhibition curve with a large enough effect; inconclusive = small, poorly fitted or top-dose-only effect, or another doubt; inactive = no such curve, though single readings can be large or run the other way. Potencies beside an inconclusive call are fits to weak or partial responses and may not hold up.
% is set by controls: 0 for no effect and ±100 for the full control effect; potency is the fitted concentration of half-maximal effect.

Assay: Primary qHTS for delayed death inhibitors of the malarial parasite plastid, 96 hour incubation
Conditions: P. falciparum luciferase reporter growth; series mostly up to 28.7 µM; activity change, negative = inhibition: at the top concentration
Outline: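 Parasite growth measured via integrated firefly luciferase reporter in P. falciparum. Infected erythrocytes at 2% hematocrit, 0.05% parasitemia final were treated 96 hours at 37 C under 5% CO2, and luminescence was read.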
In the case of CC(C)(C)c1ccc(S(=O)(=O)N2CCN(C(=O)C3=COCCO3)CC2)cc1, the Potency is reported as active: 13.1 µM. In the case of CCn1nc(C(=O)N2CCc3ccccc3C2)c2ccccc2c1=O, the Potency is reported as inconclusive: 18.5 µM [inhibitor, partial curve, poor fit]. In the case of CCn1c(=N)c(S(=O)(=O)c2ccc(C)cc2)cc2c(=O)n3ccccc3nc21, the Potency is reported as inconclusive: 8.28 µM [inhibitor, partial curve, poor fit]. With O=C(Cc1ccccc1)NCc1ccncc1 the Potency was inconclusive: 18.5 µM [inhibitor, single point]. With O=C(COc1ccc(F)cc1Cl)Nc1ccc(S(=O)(=O)Nc2nccs2)cc1 the “activity change, negative = inhibition” value was inactive: -11.8%. For CC1CCCC(NC(=O)c2cccc(N3CCCC3=O)c2)C1C (centres undefined), the Potency was inconclusive: 11.7 µM [inhibitor, single point]. For COCc1cc(C)nc(SCC(=O)Nc2ccccc2N2CCOCC2)c1C#N, the Potency was inconclusive: 18.5 µM [inhibitor, single point]. In the case of CCCn1c(=NC(=O)CCS(=O)(=O)c2ccccc2)sc2cc(S(N)(=O)=O)ccc21, the Potency is reported as inconclusive: 18.5 µM [inhibitor, single point]. For COc1ccc(-c2nc(-c3cccs3)c(-c3cccs3)[nH]2)cc1OC, the Potency was inconclusive: 18.5 µM [inhibitor, single point]. With CCN(CC)c1ccc(C(=O)Nn2c(C)nc3ccccc3c2=O)cc1 the Potency was inconclusive: 0.131 µM [inhibitor, full curve]. For COc1ccccc1N1CCN(C(=O)CN(C)S(=O)(=O)c2ccc3c(c2)c(=O)n(C)c(=O)n3C)CC1, the “activity change, negative = inhibition” value was inactive: 0.326%. In the case of CC(=O)N1c2ccc(S(=O)(=O)N3CCC(C(=O)Nc4cccc(C)c4)CC3)cc2CC1C (centres undefined), the “activity change, negative = inhibition” value is reported as inactive: 37.2%. For O=C(COc1ccc(Cl)cc1)NC(=S)Nc1ccccc1N1CCOCC1, the Potency was inconclusive: 13.1 µM [inhibitor, partial curve]. In the case of O=C(Cc1cccs1)N/N=C/C=C/c1ccco1, the Potency is reported as inconclusive: 18.5 µM [inhibitor, single point]. For N#CCSc1nc(N)c(C#N)c(C2CCCCC2)c1C#N, the Potency was inconclusive: 11.7 µM [inhibitor, partial curve, poor fit]. In the case of Cc1cccc2cc(C3CC(c4ccco4)=NN3S(C)(=O)=O)c(Cl)nc12 (centres undefined), the Potency is reported as inconclusive: 18.5 µM [inhibitor, single point]. In the case of COc1ccc(NC(=O)CSc2sc3c(O)cc(=O)[nH]c3c2C#N)c(OC)c1, the Potency is reported as inconclusive: 10.4 µM [inhibitor, single point]. With COc1ccc(-c2cc(C(F)F)nc(-n3nc(C)cc3C)n2)cc1 the Potency was inconclusive: 18.5 µM [inhibitor, single point]. With CS(=O)(=O)c1ccc2nc(NC(=O)c3ccc(NS(=O)(=O)c4ccc(F)c(F)c4)cc3)sc2c1 the Potency was inconclusive: 11.7 µM [inhibitor, partial curve]. For Cc1ccc(Cn2cc(/C=N/Nc3ccc([N+](=O)[O-])cn3)c3ccccc32)cc1, the Potency was inconclusive: 18.5 µM [inhibitor, single point]. With COc1cccc(-c2nnn(CC(=O)O)n2)c1 the Potency was inconclusive: 13.1 µM [inhibitor, partial curve, poor fit]. With COc1ccc(C(=O)Nc2nc3ccccc3s2)cc1 the “activity change, negative = inhibition” value was inactive: 0%. With CCOC(=O)CSc1nc2sc3c(c2c(=O)[nH]1)CC(C)(CC)OC3 (centres undefined) the Potency was inconclusive: 16.5 µM [inhibitor, single point]. For CCOC(=O)CC1C(=O)NCCN1C(=O)c1cc2c(=O)n3cccc(C)c3nc2s1 (centres undefined), the Potency was inconclusive: 9.28 µM [inhibitor, single point]. With CSc1ccccc1NC(=O)CCn1c(=O)oc2ccccc21 the “activity change, negative = inhibition” value was inactive: 7.07%. In the case of COc1ccc(/C=N/Nc2cc(C)nc(N)n2)cc1, the “activity change, negative = inhibition” value is reported as inactive: -2.22%. With O=C1C(=O)N(CCCn2ccnc2)C(c2ccc([N+](=O)[O-])cc2)/C1=C(\O)c1ccc2c(c1)OCCO2 (centres undefined) the Potency was inconclusive: 0.657 µM [inhibitor, full curve, poor fit]. For COCCCNc1nc(N)c([N+](=O)[O-])c(NCC2CCCO2)n1 (centres undefined), the Potency was inconclusive: 18.5 µM [inhibitor, single point]. For O=C(Nc1ccc(Br)cn1)c1ccc([N+](=O)[O-])o1, the Potency was inconclusive: 2.33 µM [inhibitor, partial curve, poor fit]. With Cc1noc(C)c1CSCC(=O)NC1=NCCS1 the Potency was inconclusive: 18.5 µM [inhibitor, single point]. With COc1cc(/C=C/C(=O)Nc2cc(C(F)(F)F)ccc2Cl)cc(OC)c1OC the Potency was active: 2.62 µM. With COc1ccc(Br)cc1/C=N/NC(=O)c1nc(-c2ccccc2)n2c1CCCCC2 the Potency was active: 7.38 µM. For O=C1C(=O)N(CCS(=O)(=O)c2ccccc2)c2ccc(Cl)cc21, the Potency was inconclusive: 9.28 µM [inhibitor, single point]. With O=C(C1CCN(S(=O)(=O)c2ccc(Br)s2)CC1)N1CCc2ccccc21 the Potency was inconclusive: 9.28 µM [inhibitor, partial curve, poor fit]. With CCOc1ccc(-c2nnc(SCC(=O)NC(C)(C)C)nc2-c2ccc(OCC)c(OC)c2)cc1OC the Potency was inconclusive: 18.5 µM [inhibitor, single point]. In the case of CCC(C)N(CCNC(=O)c1ccc2c(c1)NC(=O)c1ccccc1S2)C1CCCCC1 (centres undefined), the Potency is reported as inconclusive: 18.5 µM [inhibitor, single point]. In the case of CCOc1ccc(NC(=O)CN(C)C(=O)c2cc(S(=O)(=O)N3CCCCCC3)ccc2OC)cc1OCC, the Potency is reported as inconclusive: 5.86 µM [inhibitor, partial curve, poor fit]. With Cc1ccc2[nH]c(=O)c(CN(Cc3ccco3)C(=O)CN3CCCC(C)C3)cc2c1 (centres undefined) the Potency was inconclusive: 14.7 µM [inhibitor, single point]. With O=C(c1cc(Cl)nc2ccccc12)N1CCc2ccccc2C1 the Potency was inconclusive: 14.7 µM [inhibitor, partial curve, poor fit]. With Cc1ccc(NS(=O)(=O)c2ccc(C)c(NC(=O)COc3ccc4ccccc4c3)c2)c(C)c1 the Potency was inconclusive: 0.329 µM [inhibitor, full curve]. For C=C(C)COc1ccc(-c2n[nH]c(C)c2-c2ccc(Br)cc2)c(O)c1, the Potency was inconclusive: 20.8 µM [inhibitor, partial curve, poor fit]. In the case of CN(C(=O)CSc1nnc(-c2ccccc2)c(-c2ccccc2)n1)C1CCS(=O)(=O)C1 (centres undefined), the “activity change, negative = inhibition” value is reported as inactive: 2.4%. In the case of N#Cc1ccc(C23CC4(C2)[C@H](CN(Cc2ccc(C(F)(F)F)cc2)[C@@H]4c2ccccc2)C3c2ccc(Cl)nc2)cc1 (some centres undefined), the Potency is reported as active: 13.1 µM. For CCOC(=O)/C=C(C)/C=C/CC(C)CCCC(C)C (centres undefined), the “activity change, negative = inhibition” value was inactive: -104%. In the case of CCN1CCN(C(=O)C(=O)c2cn(CC(=O)N(CC)CC)c3ccccc23)CC1, the Potency is reported as inconclusive: 0.0657 µM [inhibitor, full curve, poor fit]. In the case of O=c1[nH]cnc(O)c1C(c1ccc(Br)cc1)c1c(O)nc[nH]c1=O, the Potency is reported as inconclusive: 0.0657 µM [inhibitor, full curve, poor fit]. With COc1ccc(/C=N/OCC(=O)N=Nc2c(O)[nH]c3ccc(Br)cc23)cc1 the Potency was inconclusive: 8.28 µM [inhibitor, single point]. For COCc1cc(C)nc(SCC(=O)Nc2nc(C)cs2)c1C#N, the Potency was inconclusive: 18.5 µM [inhibitor, single point]. With COc1ccc(OC)c(N2C(=O)/C(=C/c3ccco3)C(=O)NC2=S)c1 the Potency was inconclusive: 2.08 µM [inhibitor, full curve, poor fit]. In the case of CC(C)(C)N(Cc1ccccc1)C(=O)COC(=O)CCc1c[nH]c2ccccc12, the Potency is reported as inconclusive: 16.5 µM [inhibitor, single point]. In the case of Cc1ccc(NC(=S)Nc2ccc3cn[nH]c3c2)cc1, the “activity change, negative = inhibition” value is reported as inactive: 55.8%. With C=CCOC(=O)C(C#N)c1nc2ccccc2nc1N1CCN(c2ccccc2OC)CC1 (centres undefined) the Potency was active: 8.28 µM. In the case of Cc1cc2occ(CC(=O)NNC(=O)c3ccccc3)c2cc1C, the Potency is reported as inconclusive: 0.0026 µM [inhibitor, full curve, poor fit]. In the case of CCOc1ccc(-n2c(SCC(N)=O)nc3c([nH]c4ccccc43)c2=O)cc1, the Potency is reported as inconclusive: 11.7 µM [inhibitor, single point]. In the case of Cc1ccccc1NC(=O)c1cccc(S(=O)(=O)N2CCOCC2)c1, the Potency is reported as inconclusive: 11.7 µM [inhibitor, single point]. With COc1ccc(Nc2nnc(SCC(=O)N3CCCC3)s2)cc1 the Potency was inconclusive: 7.38 µM [inhibitor, partial curve, poor fit]. With Cc1ccc(C)c(N2CCN(C3CCCCC3NS(=O)(=O)c3ccccc3)CC2)c1 (centres undefined) the Potency was active: 11.7 µM. In the case of O=C(Nc1cccc(S(=O)(=O)N2CCCCC2)c1)c1ccc(N2CCCC2=O)cc1, the Potency is reported as inconclusive: 8.28 µM [inhibitor, partial curve, poor fit]. In the case of CN1CCN(S(=O)(=O)c2ccc([N+](=O)[O-])cc2)CC1, the Potency is reported as inconclusive: 11.7 µM [inhibitor, single point]. For CC(C)CC(C(=O)NC1CCCCC1)N(Cc1ccccc1)C(=O)c1snc(C(N)=O)c1N (centres undefined), the Potency was inconclusive: 9.28 µM [inhibitor, partial curve]. With CC(=O)Nc1ccc(S(=O)(=O)Nc2ccc(Nc3ccccc3)cc2)cc1 the Potency was inconclusive: 18.5 µM [inhibitor, single point]. With COc1ccc(/C=N/NC(=O)/C(=C/c2ccccc2)CCO)cc1 the “activity change, negative = inhibition” value was inactive: -23.5%. For O=C(CCCOc1ccc(Cl)cc1)NCCc1ccccc1, the “activity change, negative = inhibition” value was inactive: -23.2%. With Cc1cc(C)c(C#N)c(Oc2ccc(O)cc2)n1 the Potency was active: 5.22 µM.
